This note sets out measurements from PubChem BioAssay AID192 (DTP/NCI, 2004).

The test concerns BDF1 mice, B16 melanoma ip, median survival T/C. Put plainly: NCI In Vivo Anticancer Drug Screen. Data for tumor model B16 Melanoma (intraperitoneal) in B6D2F1 (BDF1) mice. As to conditions: T/C endpoint: median survival time, higher T/C = longer survival. The method in brief:
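Antitumor activity is assessed in mice bearing a transplanted tumor, with survival or tumor size compared against vehicle-dosed controls and expressed as T/C.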

Where [1] appears, read: dose: 400.0 mg/kg/injection, schedule: Q01DX009 (ip), vehicle: Klucel (hydroxypropylcellulose) (HPC).
The mark [2] stands for this setting: dose: 200.0 mg/kg/injection, schedule: Q04DX003 (ip), vehicle: Klucel (hydroxypropylcellulose) (HPC).
Where [3] appears, read: dose: 16.0 mg/kg/injection, schedule: Q01DX009 (ip), vehicle: saline.

SMILES strings stand for the structures. The list is a part of this screen's results and no random one: it gathers tests that were run many times, whatever their T/C, doses with no T/C, and many T/C values between a quarter and a half above the control. Other doses and runs of a compound stand elsewhere. T/C: endpoint of the treated group in % of that of the vehicle group. Some doses have a count of surviving animals in place of a T/C: the source files T/C as zero there, which appears to mark a toxic dose or a test without result, not a measured value. Some survivor counts are full or nearly so, which does not show that the dose was tolerated: the source hardly ever lists a survival T/C far under the control, and the zero likely stands for such cases as well. Counts of survivors are from the toxicity check (mostly the fifth day) where no day follows; animals may have died later. Schedules are NCI's codes, read here as Q, the interval in days (D) or hours (H), X, the number of doses. Counts like (3×) count equal records among those shown. Some entries were tested several times; the results are listed from low to high. For survival time, the PubChem record calls one and a half times the control and up active, and a quarter to a half above the control has no call in these data; cut-offs in other NCI protocols can differ. Some T/C values carry the count of animals alive at the toxicity check (mostly the fifth day); without a count, all were alive then.

On to `CCCNC(C)(C)C(SSS)c1cccs1` (stereo not given), for which the survivor count (dose: 37.5 mg/kg/injection, schedule: Q04DX003 (ip), vehicle: alcohol) was 10 of 10; the survivor count (dose: 75.0 mg/kg/injection, schedule: Q04DX003 (ip), vehicle: alcohol) is 10 of 10; the survivor count (dose: 100.0 mg/kg/injection, schedule: Q01DX009 (ip), vehicle: alcohol) was 9 of 10; the survivor count (dose: 150.0 mg/kg/injection, schedule: Q04DX003 (ip), vehicle: alcohol) is recorded as 10 of 10; the survivor count (dose: 200.0 mg/kg/injection, schedule: Q01DX009 (ip), vehicle: alcohol) is given as 7 of 10.
Consider `COc1ccc2c(c1Oc1ccc([N+](=O)[O-])cc1[N+](=O)[O-])C13CCN(C)C(C2)C1CCC1(C3)OCCO1` (stereo not given), for which the survivor count under setting [1] is recorded as 4 of 10.
On to `COc1ccc(C2CCC(=O)CC2C(=O)O)cc1` (stereo not given), for which the survivor count under setting [2] is 10 of 10.
For the molecule `S=P(N1CC1)(N1CC1)N1CC1`, the T/C was 87 and 115 % of control (dose: 1.0 mg/kg/injection, schedule: Q01DX009 (ip), vehicle: saline, evaluated on day 45); 100 (2×), 105, 115, 118 % of control [9 of 10 alive] (dose: 1.0 mg/kg/injection, schedule: Q01DX009 (ip), vehicle: saline, evaluated on day 60); 89 and 110 % of control (dose: 2.0 mg/kg/injection, schedule: Q01DX009 (ip), vehicle: saline, evaluated on day 45); 94, 100, 110, 116, 130 % of control (dose: 2.0 mg/kg/injection, schedule: Q01DX009 (ip), vehicle: saline, evaluated on day 60); 126 % of control (dose: 2.0 mg/kg/injection, schedule: Q02DX009 (ip), vehicle: saline); 127 % of control (dose: 3.0 mg/kg/injection, schedule: Q02DX009 (ip), vehicle: saline). Moreover, the T/C was 94 and 129 % of control (dose: 4.0 mg/kg/injection, schedule: Q01DX009 (ip), vehicle: saline, evaluated on day 45); 89, 108, 113, 121, 138 % of control (dose: 4.0 mg/kg/injection, schedule: Q01DX009 (ip), vehicle: saline, evaluated on day 60); 135 % of control (dose: 4.0 mg/kg/injection, schedule: Q02DX009 (ip), vehicle: saline); 86 % of control (dose: 8.0 mg/kg/injection, schedule: Q01DX009 (ip), vehicle: saline, evaluated on day 45); 115 % of control (dose: 8.0 mg/kg/injection, schedule: Q01DX009 (ip), vehicle: saline, evaluated on day 60); 97 % of control under setting [3]. Moreover, the survivor count reads like this: (dose: 6.0 mg/kg/injection, schedule: Q01DX009 (ip), vehicle: saline) 10 of 10; (dose: 8.0 mg/kg/injection, schedule: Q01DX009 (ip), vehicle: saline) 10 of 10 (2×); (dose: 8.0 mg/kg/injection, schedule: Q02DX009 (ip), vehicle: saline) 10 of 10; (dose: 12.0 mg/kg/injection, schedule: Q01DX009 (ip), vehicle: saline) 10 of 10; (dose: 12.0 mg/kg/injection, schedule: Q02DX009 (ip), vehicle: saline) 10 of 10; under setting [3], 3 of 10, 9 of 10, 10 of 10 (2×). Also, the survivor count reads like this: (dose: 16.0 mg/kg/injection, schedule: Q02DX009 (ip), vehicle: saline) 10 of 10; (dose: 24.0 mg/kg/injection, schedule: Q01DX009 (ip), vehicle: saline) 2 of 10 and 3 of 10; (dose: 24.0 mg/kg/injection, schedule: Q02DX009 (ip), vehicle: saline) 9 of 10 and 10 of 10; (dose: 32.0 mg/kg/injection, schedule: Q02DX009 (ip), vehicle: saline) 2 of 10 and 5 of 10; (dose: 64.0 mg/kg/injection, schedule: Q02DX009 (ip), vehicle: saline) 2 of 10 and 7 of 10.
As to `CCC1(O)CC2CN(CCc3c([nH]c4ccccc34)C(C(=O)OC)(c3cc4c(cc3OC)N(C)C3C(O)(C(=O)NCCSSCCNC(=O)C5(O)C(O)C6(CC)C=CCN7CCC8(c9cc(C%10(C(=O)OC)CC%11CN(CCc%12c%10[nH]c%10ccccc%12%10)CC(O)(CC)C%11)c(OC)cc9N(C)C58)C76)C(O)C5(CC)C=CCN6CCC43C65)C2)C1` (stereo not given), the T/C is, setting by setting: (dose: 0.25 mg/kg/injection, schedule: Q04DX003 (ip), vehicle: saline) 137 % of control; (dose: 0.38 mg/kg/injection, schedule: Q01DX009 (ip), vehicle: saline) 139 % of control; (dose: 0.5 mg/kg/injection, schedule: Q04DX003 (ip), vehicle: saline) 132 % of control; (dose: 233.0 micrograms/kg/injection, schedule: Q04DX003 (ip), vehicle: saline) 130 % of control; (dose: 389.0 micrograms/kg/injection, schedule: Q04DX003 (ip), vehicle: saline) 147 % of control; (dose: 648.0 micrograms/kg/injection, schedule: Q04DX003 (ip), vehicle: saline) 131 % of control. Further, the T/C runs as follows: (dose: 1080.0 micrograms/kg/injection, schedule: Q04DX003 (ip), vehicle: saline) 130 % of control; (dose: 1800.0 micrograms/kg/injection, schedule: Q04DX003 (ip), vehicle: saline) 133 % of control. Further, the survivor count is 9 of 10 (dose: 1.8 mg/kg/injection, schedule: Q01DX009 (ip), vehicle: saline); 8 of 10 (dose: 2.0 mg/kg/injection, schedule: Q04DX003 (ip), vehicle: saline); 5 of 10 (dose: 3.0 mg/kg/injection, schedule: Q01DX009 (ip), vehicle: saline); 9 of 10 and 10 of 10 (dose: 3000.0 micrograms/kg/injection, schedule: Q04DX003 (ip), vehicle: saline).
`COc1cc(/C=C(/C)[N+](=O)[O-])ccc1O`: the survivor count (dose: 200.0 mg/kg/injection, schedule: Q01DX009 (ip), vehicle: carboxymethylcellulose (CMC)) is listed as 4 of 10.
For the molecule `COc1ccc2c(=O)cc(-c3ccccc3)[nH]c2c1`, the T/C by setting is: (dose: 100.0 mg/kg/injection, schedule: Q01DX009 (ip), vehicle: saline) 125 % of control [9 of 10 alive]; (dose: 200.0 mg/kg/injection, schedule: Q01DX009 (ip), vehicle: saline) 130 % of control.
With `CCCC(NC(=O)C(C)Br)C(=O)O` (stereo not given), the survivor count (dose: 200.0 mg/kg/injection, schedule: Q01DX009 (ip), vehicle: saline with Tween-80) is recorded as 10 of 10.
Turning to `c1ccc([B-]2([C+]3CCCCC3)N3CCCCC3C3CCCCN32)cc1` (stereo not given), the survivor count reads like this: (dose: 50.0 mg/kg/injection, schedule: Q01DX009 (ip), vehicle: Klucel (hydroxypropylcellulose) (HPC)) 5 of 10; (dose: 100.0 mg/kg/injection, schedule: Q01DX009 (ip), vehicle: Klucel (hydroxypropylcellulose) (HPC)) 1 of 10.
Regarding `CC(=O)O[C@H]1[C@H]2O[C@]23[C@@H]2CC[C@@H]4C[C@@H](O)CC[C@]4(C)[C@H]2CC[C@]3(C)[C@H]1c1ccc(=O)oc1`, the survivor count is listed as 5 of 6 (dose: 15.0 mg/kg/injection, schedule: Q01DX009 (ip), vehicle: saline with Tween-80) and 0 of 6 (dose: 30.0 mg/kg/injection, schedule: Q01DX009 (ip), vehicle: saline with Tween-80).
With `CCCCCCCC/C=C\CCCCCCCCN1CC(C(=O)[O][Pb]([CH2]C)([CH2]C)[CH2]C)CC1=O` (stereo not given), the survivor count (dose: 12.0 mg/kg/injection, schedule: Q01DX009 (ip), vehicle: saline with Tween-80) is given as 9 of 10.
Regarding `OCCN1CCN(CCCN2c3ccccc3CCc3ccccc32)CC1`, the survivor count is listed as 3 of 10 (dose: 125.0 mg/kg/injection, schedule: Q01DX009 (ip), vehicle: saline) and 0 of 10 (dose: 250.0 mg/kg/injection, schedule: Q01DX009 (ip), vehicle: saline).
As to `C=CCNC(=S)Nc1cc(Cl)ccc1C`, under setting [2], the survivor count is recorded as 8 of 10.
In the case of `CNC(=O)Nc1c(C)cccc1C`, the survivor count under setting [1] was 9 of 10.
